Source: patent US20240101635A1 (AKSTON BIOSCIENCES, published 2024)
These are yes or no findings as the source states them, for the method shown. Some entries that bind do so weakly or less than the wild type. Tags and fused reporters may be left off the sequences shown.

The chains behind the UniProt entries cited, without tags or fusion partners. Residues count along the entry.
UniProt P06213, residues 28-1382: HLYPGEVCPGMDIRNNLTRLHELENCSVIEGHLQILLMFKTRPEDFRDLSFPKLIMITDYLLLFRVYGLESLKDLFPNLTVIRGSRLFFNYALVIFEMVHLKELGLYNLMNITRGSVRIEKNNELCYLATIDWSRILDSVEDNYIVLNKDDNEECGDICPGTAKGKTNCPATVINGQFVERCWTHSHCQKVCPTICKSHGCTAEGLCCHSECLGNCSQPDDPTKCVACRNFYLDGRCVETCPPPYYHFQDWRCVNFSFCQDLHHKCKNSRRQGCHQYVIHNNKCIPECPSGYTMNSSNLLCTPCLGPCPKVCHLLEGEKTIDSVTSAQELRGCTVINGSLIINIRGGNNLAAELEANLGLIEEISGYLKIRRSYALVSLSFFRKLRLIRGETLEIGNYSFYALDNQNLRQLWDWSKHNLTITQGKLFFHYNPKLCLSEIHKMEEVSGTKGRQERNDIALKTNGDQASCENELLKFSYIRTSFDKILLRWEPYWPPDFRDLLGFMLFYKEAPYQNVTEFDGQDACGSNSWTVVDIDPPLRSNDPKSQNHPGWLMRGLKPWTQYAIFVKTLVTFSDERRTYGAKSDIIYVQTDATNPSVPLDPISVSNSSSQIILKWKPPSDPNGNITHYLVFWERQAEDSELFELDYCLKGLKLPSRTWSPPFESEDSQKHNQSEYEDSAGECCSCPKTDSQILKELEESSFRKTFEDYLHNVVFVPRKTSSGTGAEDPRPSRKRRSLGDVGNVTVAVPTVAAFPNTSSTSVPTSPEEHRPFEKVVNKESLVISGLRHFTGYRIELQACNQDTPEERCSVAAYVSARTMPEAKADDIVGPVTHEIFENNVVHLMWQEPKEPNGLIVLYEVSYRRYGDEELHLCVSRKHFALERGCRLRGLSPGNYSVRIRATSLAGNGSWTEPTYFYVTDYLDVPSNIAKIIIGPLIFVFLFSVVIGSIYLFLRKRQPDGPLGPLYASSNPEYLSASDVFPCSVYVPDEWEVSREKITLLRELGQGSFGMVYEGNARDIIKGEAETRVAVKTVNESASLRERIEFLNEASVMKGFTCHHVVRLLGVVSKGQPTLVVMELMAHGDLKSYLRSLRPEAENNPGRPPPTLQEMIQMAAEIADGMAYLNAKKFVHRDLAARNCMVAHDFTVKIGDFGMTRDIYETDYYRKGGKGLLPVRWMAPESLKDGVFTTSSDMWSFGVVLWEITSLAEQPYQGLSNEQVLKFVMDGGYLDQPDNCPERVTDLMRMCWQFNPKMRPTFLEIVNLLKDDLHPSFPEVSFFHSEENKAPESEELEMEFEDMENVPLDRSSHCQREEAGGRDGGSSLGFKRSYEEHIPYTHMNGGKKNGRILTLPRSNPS

Each binder was assayed against T1, human insulin receptor (human, UniProt P06213 28-1382) (assay: competition with biotinylated RHI on IM-9 cells, flow cytometry, 4 C).
T1 construct: whole, on cells; Endogenous receptor on IM-9 cells; also called IR

binding	Binder
binds	insulin-Fc fusion protein of SEQ ID NO: 68 (Fc fusion) FVNQHLCGSHLVQALYLVCGERGFFYTDPTGGGPRRGIVEQCCTSICSLYQLENYCGGGGAGGGGDCPKCPAPEMLGGPSVFIFPPKPKDTLLIARTPEVTCVVVDLDPEDPEVQISWFVDGKQMQTAKTQPREEQFSGTYRVVSVLPIGHQDWLKGKQFTCKVNNKALPSPIERTISKARGQAHQPSVYVLPPSREELSKNTVSLTCLIKDFFPPDIDVEWQSNGQQEPESKYRTTPPQLDEDGSYFLYSKLSVDKSRWQRGDTFICAVMHEALHNHYTQESLSHSPG
binds	insulin-Fc fusion protein of SEQ ID NO: 84 (Fc fusion) FVNQHLCGSHLVEALALVCGERGFFYTPGGGGGGGGGIVEQCCTSICSLYQLENYCGGGGAGGGGDCPKCPAPEMLGGPSVFIFPPKPKDTLLIARTPEVTCVVVDLDPEDPEVQISWFVDGKQMQTAKTQPREEQFSGTYRVVSVLPIGHQDWLKGKQFTCKVNNKALPSPIERTISKARGQAHQPSVYVLPPSREELSKNTVSLTCLIKDFFPPDIDVEWQSNGQQEPESKYRTTPPQLDEDGSYFLYSKLSVDKSRWQRGDTFICAVMHEALHNHYTQESLSHSPG
binds	insulin-Fc fusion protein of SEQ ID NO: 74 (Fc fusion) FVNQHLCGSHLVEALALVCGERGFYYTDPTGGGPRRGIVEQCCTSICSLYQLENYCGGGGAGGGGDCPKCPAPEMLGGPSVFIFPPKPKDTLLIARTPEVTCVVVDLDPEDPEVQISWFVDGKQMQTAKTQPREEQFSGTYRVVSVLPIGHQDWLKGKQFTCKVNNKALPSPIERTISKARGQAHQPSVYVLPPSREELSKNTVSLTCLIKDFFPPDIDVEWQSNGQQEPESKYRTTPPQLDEDGSYFLYSKLSVDKSRWQRGDTFICAVMHEALHNHYTQESLSHSPG
binds	insulin-Fc fusion protein of SEQ ID NO: 70 (Fc fusion) FVNQHLCGSELVEALALVCGERGFFYTDPTGGGPRRGIVEQCCTSICSLYQLENYCGGGGAGGGGDCPKCPAPEMLGGPSVFIFPPKPKDTLLIARTPEVTCVVVDLDPEDPEVQISWFVDGKQMQTAKTQPREEQFSGTYRVVSVLPIGHQDWLKGKQFTCKVNNKALPSPIERTISKARGQAHQPSVYVLPPSREELSKNTVSLTCLIKDFFPPDIDVEWQSNGQQEPESKYRTTPPQLDEDGSYFLYSKLSVDKSRWQRGDTFICAVMHEALHNHYTQESLSHSPG
binds	insulin-Fc fusion protein of SEQ ID NO: 88 (Fc fusion) FVNQHLCGSHLVEALALVCGERGFFYTQGGGGGGGGGIVEQCCTSICSLYQLENYCGGGGAGGGGDCPKCPAPEMLGGPSVFIFPPKPKDTLLIARTPEVTCVVVDLDPEDPEVQISWFVDGKQMQTAKTQPREEQFSGTYRVVSVLPIGHQDWLKGKQFTCKVNNKALPSPIERTISKARGQAHQPSVYVLPPSREELSKNTVSLTCLIKDFFPPDIDVEWQSNGQQEPESKYRTTPPQLDEDGSYFLYSKLSVDKSRWQRGDTFICAVMHEALHNHYTQESLSHSPG
binds	insulin-Fc fusion protein of SEQ ID NO: 114 (Fc fusion, homodimer) FVNQHLCGSHLVEALALVCGERGFFYTDPAGGGPRRGIVEQCCASVCSLYQLEHYCGGGGAGGGGGEGPKCPVPEIPGAPSVFIFPPKPKDTLSISRTPEVTCLVVDLGPDDSNVQITWFVDNTEMHTAKTRPREEQFNSTYRVVSVLPILHQDWLKGKEFKCKVNSKSLPSAMERTISKAKGQPHEPQVYVLPPTQEELSENKVSVTCLIKGFHPPDIAVEWEITGQPEPENNYQTTPPQLDSDGTYFLYSRLSVDRSHWQRGNTYTCSVSHEALHSHHTQKSLTQSP
binds	insulin-Fc fusion protein of SEQ ID NO: 80 (Fc fusion) FVNQHLCGSHLVEALALVCGERGFFYTDPTGGGGGGSGGGGGIVEQCCTSICSLYQLENYCGGGGAGGGGDCPKCPAPEMLGGPSVFIFPPKPKDTLLIARTPEVTCVVVDLDPEDPEVQISWFVDGKQMQTAKTQPREEQFSGTYRVVSVLPIGHQDWLKGKQFTCKVNNKALPSPIERTISKARGQAHQPSVYVLPPSREELSKNTVSLTCLIKDFFPPDIDVEWQSNGQQEPESKYRTTPPQLDEDGSYFLYSKLSVDKSRWQRGDTFICAVMHEALHNHYTQESLSHSPG
binds	insulin-Fc fusion protein of SEQ ID NO: 86 (Fc fusion) FVNQHLCGSHLVEALALVCGERGFFYTDPTGGGPRRGIVEQCCTSICSLYQLENYCGGGGGQGGGGQGGGGQGGGGGDCPKCPAPEMLGGPSVFIFPPKPKDTLLIARTPEVTCVVVDLDPEDPEVQISWFVDGKQMQTAKTQPREEQFSGTYRVVSVLPIGHQDWLKGKQFTCKVNNKALPSPIERTISKARGQAHQPSVYVLPPSREELSKNTVSLTCLIKDFFPPDIDVEWQSNGQQEPESKYRTTPPQLDEDGSYFLYSKLSVDKSRWQRGDTFICAVMHEALHNHYTQESLSHSPG
binds	insulin-Fc fusion protein of SEQ ID NO: 32 (Fc fusion, homodimer; also called 218d) FVNQHLCGSHLVEALELVCGERGFHYGGGGGGSGGGGGIVEQCCTSTCSLDQLENYCGGGGGQGGGGQGGGGQGGGGGDCPKCPAPEMLGGPSVFIFPPKPKDTLLIARTPEVTCVVVDLDPEDPEVQISWFVDGKQMQTAKTQPREEQFNGTYRVVSVLPIGHQDWLKGKQFTCKVNNKALPSPIERTISKARGQAHQPSVYVLPPSREELSKNTVSLTCLIKDFFPPDIDVEWQSNGQQEPESKYRTTPPQLDEDGSYFLYSKLSVDKSRWQRGDTFICAVMHEALHNHYTQESLSHSPG
binds	insulin-Fc fusion protein of SEQ ID NO: 94 (Fc fusion) FVNQHLCGSHLVEALELVCGERGFFYGGGGGGSGGGGGIVEQCCTSTCSLDQLENYCGGGGGQGGGGQGGGGQGGGGGDCPKCPAPEMLGGPSVFIFPPKPKDTLLIARTPEVTCVVVDLDPEDPEVQISWFVDGKQMQTAKTQPREEQFNGTYRVVSVLPIGHQDWLKGKQFTCKVNNKALPSPIERTISKARGQAHQPSVYVLPPSREELSKNTVSLTCLIKDFFPPDIDVEWQSNGQQEPESKYRTTPPQLDEDGSYFLYSKLSVDKSRWQRGDTFICAVMHEALHNHYTQESLSHSPG
binds	insulin-Fc fusion protein of SEQ ID NO: 122 (Fc fusion, homodimer) FVNQHLCGSHLVEALELVCGERGFHYGGGGGGSGGGGGIVEQCCTSTCSLDQLENYCGGGGGQGGGGQGGGGQGGGGGGEGPKCPVPEIPGAPSVFIFPPKPKDTLSISRTPEVTCLVVDLGPDDSNVQITWFVDNTEMHTAKTRPREEQFNSTYRVVSVLPILHQDWLKGKEFKCKVNSKSLPSAMERTISKAKGQPHEPQVYVLPPTQEELSENKVSVTCLIKGFHPPDIAVEWEITGQPEPENNYQTTPPQLDSDGTYFLYSRLSVDRSHWQRGNTYTCSVSHEALHSHHTQKSLTQSPG
binds	insulin-Fc fusion protein of SEQ ID NO: 116 (Fc fusion, homodimer) FVNQHLCGSHLVEALALVCGERGFFYTDPAGGGPRRGIVEQCCASVCSLYQLEHYCGGGGAGGGGGEGPKCPVPEIPGAPSVFIFPPKPKDTLSISRTPEVTCLVVDLGPDDSNVQITWFVDNTEMHTAKTRPREEQFSSTYRVVSVLPILHQDWLKGKEFKCKVNSKSLPSAMERTISKAKGQPHEPQVYVLPPTQEELSENKVSVTCLIKGFHPPDIAVEWEITGQPEPENNYQTTPPQLDSDGTYFLYSRLSVDRSHWQRGNTYTCSVSHEALHSHHTQKSLTQSPG
binds	insulin-Fc fusion protein of SEQ ID NO: 92 (Fc fusion) FVNQHLCGSHLVEALELVCGERGFHYGGGGGGSGGGGGIVEQCCTSTCSLDQLENYCNHGGGGQGGGGQGGGGQGGGGGDCPKCPAPEMLGGPSVFIFPPKPKDTLLIARTPEVTCVVVDLDPEDPEVQISWFVDGKQMQTAKTQPREEQFNGTYRVVSVLPIGHQDWLKGKQFTCKVNNKALPSPIERTISKARGQAHQPSVYVLPPSREELSKNTVSLTCLIKDFFPPDIDVEWQSNGQQEPESKYRTTPPQLDEDGSYFLYSKLSVDKSRWQRGDTFICAVMHEALHNHYTQESLSHSPG
binds	insulin-Fc fusion protein of SEQ ID NO: 34 (Fc fusion) FVNQHLCGSHLVEALELVCGERGFHYGGGGGGSGGGGGIVEQCCTSTCSLDQLENYCNGGGGGQGGGGQGGGGQGGGGGDCPKCPAPEMLGGPSVFIFPPKPKDTLLIARTPEVTCVVVDLDPEDPEVQISWFVDGKQMQTAKTQPREEQFNGTYRVVSVLPIGHQDWLKGKQFTCKVNNKALPSPIERTISKARGQAHQPSVYVLPPSREELSKNTVSLTCLIKDFFPPDIDVEWQSNGQQEPESKYRTTPPQLDEDGSYFLYSKLSVDKSRWQRGDTFICAVMHEALHNHYTQESLSHSPG
